# Screening data

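Genome-wide siRNA knockdown in TC32 Ewing sarcoma cells, comparing luciferase light from an NR0B1-promoter reporter with a CMV-promoter reporter 48 hours after transfection.
Each siRNA was applied at 20 nM.
A z-score of the log NR0B1-over-CMV signal, less the median of siRNAs with the same seed; more negative means a stronger specific loss of the NR0B1 reporter.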

The strongest results of the screen are mostly left out here.
Sequences are the guide (antisense) strand, without overhang.

| # | strand | gene | seed-corrected z-score |
|---|---|---|---|
| 1 | `AUUGUUGACAUUAGUGGUG` | LPAR4 | -0.1786 |
| 2 | `UAGUGAACCAUAGCAAUGA` | GPM6A | 0.1267 |
| 3 | `UCAUCGAUCAUGUUAGAGC` | IL3 | -0.2171 |
| 4 | `UGCCGUGUUGUCUUCUUGC` | TRIM51GP | -0.7366 |
| 5 | `UUCCUACUAACCAAGUCAC` | C7orf60 | -0.4471 |
| 6 | `UAUACGAUCGAUUCCACUG` | KCNJ2 | 0.335 |
| 7 | `UAGUCGAUGAGCUUCUCCG` | MRPL17 | -0.4682 |
| 8 | `UCUGUUAGCAUCACGAUAG` | PTPRA | -1.443 |
| 9 | `UUCAUGUCCAGCAGCUAGU` | GJA1 | -0.01658 |
| 10 | `UGACCUUAUACAGCAAUGG` | OR8B2 | 0.04181 |
| 11 | `UUUGUUAUAAAUCUCUUCC` | DLG3 | 1.041 |
| 12 | `UGUAGAAAUAUUCUCGGCC` | EFNA5 | 1.546 |
| 13 | `AGCCGGUCCAGCUCAAUGU` | EIF4E1B | -1.431 |
| 14 | `UAAAGUCCACUUGCGGGUG` | ACTL7B | 0.02872 |
| 15 | `UCCUGGAUCCUCUUGUUCC` | CACTIN | 0.7394 |
| 16 | `AAGCGAUCAAUAAUUUGUC` | TEX26 | -0.1475 |
| 17 | `AACCAUAUUACUGUUAAGC` | GABRG1 | 0.2968 |
| 18 | `UCAAAGAACAGGGAAUCCA` | PNMT | -0.5464 |
| 19 | `AUGGUGAUGAGAACAGGCU` | TAPBP | 0.8975 |
| 20 | `UGAUUAGUAAGGAAUAUUC` | QSOX2 | 0.03311 |
| 21 | `UUAGAGGAUAGCAAGUUGA` | HTATIP2 | -0.8265 |
| 22 | `UACGCUAUGAGGUAGAUCC` | PHLDB2 | 0.3743 |
| 23 | `UGUGGACAAAGUCUCUUCC` | BIRC7 | -0.8024 |
| 24 | `UGAGGUGCGAAGUCUUGCC` | SP8 | -0.4296 |
| 25 | `UCUGUCAAAUUGCUCAUUC` | SERPINB8 | 0.105 |
| 26 | `AAAGUCCUGUGCGAUCUCC` | HIST1H3I | -0.4134 |
| 27 | `UUACAAGACAUGCCUGAGG` | NUBP2 | -0.6342 |
| 28 | `UUAAGGCCUACGGACAUCA` | KRT13 | 0.5805 |
| 29 | `UUGGGAUUUUUGUUGUUCC` | TOR1B | 0.8326 |
| 30 | `ACAGACAUAAUGCUGAGCC` | TIMP4 | -1.033 |
| 31 | `AAAGGUAACGAGGUCAGCA` | UCP3 | 0.5901 |
| 32 | `AAAGUAGACAGACCCAUUG` | CARS | -0.04778 |
| 33 | `AUUGGGUAAACCUUUAAUG` | IDH1 | -0.2865 |
| 34 | `UGAUUUUUAGGUAGGCUGC` | PARM1 | 0.01012 |
| 35 | `UGACUAGAUACAGAGAGAG` | OR10Z1 | -1.102 |
| 36 | `AAGCACAAAAGGGACCCGC` | SERF2 | 0.7984 |
| 37 | `UUUGUCGACAAGUAAAUCC` | ZFP91 | 0.06801 |
| 38 | `UUAGGGACAAGAUGGUAGG` | SLC7A6 | -0.4536 |
| 39 | `UUCUUGUAGACAUAUGCGA` | PLXNA4 | 0.6262 |
| 40 | `UAUGGUUCCUCCUGUCUGG` | HDAC11 | -0.2793 |
| 41 | `UACUCGACCAAAUACCUUC` | DDX60 | -0.08169 |
| 42 | `UCUUGUCCUCGACAUGACC` | LAX1 | -0.6074 |
| 43 | `UACGCAUAAAUUCCGCUGG` | JAK2 | -0.5776 |
| 44 | `UGUCUGGUAGAGUUGCGGC` | SLFNL1 | -0.7733 |
| 45 | `AAUCUUAUAAAGUAAGUGC` | FAM50B | 1.04 |
| 46 | `UUCUUUCCCACACCGAUAG` | RBM4B | -0.8785 |
| 47 | `UGAGCUGGUACCUAAAUGC` | SLC39A2 | -0.1752 |
| 48 | `UGAAUUCUUAUUCUUGUUG` | PLCD1 | 0.1924 |
| 49 | `AUACUCAAUAUAUUCCACC` | FAM199X | -0.5278 |
| 50 | `AUAUCCGUCAGUGCAUUGC` | EFEMP1 | 0.007247 |
| 51 | `AUACUUGAAACUACGCUGG` | WNK1 | -0.5886 |
| 52 | `UAGCUUAACAUACCUUCUG` | CRYL1 | 0.04717 |
| 53 | `CCAUUGUCACGAUUUAUUG` | PCDHGC3 | -0.6025 |
| 54 | `UAAUGAACAGCUGACACGC` | OSBPL5 | 0.02545 |
| 55 | `AGAGGAUUCAGAUGUCUCA` | C9orf106 | 1.094 |
| 56 | `UUUGUGAGGUGUUUCAAUG` | CCNE2 | -0.8127 |
| 57 | `UUCAUCAACGGUGAUACCG` | ARID1A | -0.9055 |
| 58 | `UACUCAAUCAGCUCUGGUC` | ACTN4 | -0.9686 |
| 59 | `UCUAGUUCCUCGUAGCGGC` | SELM | 0.626 |
| 60 | `AGAUCUACUACCGAGAGGU` | MCHR1 | 0.4017 |
| 61 | `AUGCGAAUUGUGGUGGUCC` | PCDHB5 | -0.4134 |
| 62 | `AGAGCAAUCACUAGCAUCG` | WRN | -1.057 |
| 63 | `UUAACUGACAUCAUAUUAC` | ACBD3 | 0.6079 |
| 64 | `AAUAAGAUGAUAGCAUUCC` | OR2T1 | -0.5701 |
| 65 | `AAACCUAUUGUAGGGAUGG` | ARL14 | 0.602 |
| 66 | `UCAGUCCAACAUACACAGG` | PITX1 | 0.02333 |
| 67 | `UUGCGGUUUCUAAUCCUUC` | RNF144A | -1.59 |
| 68 | `AGCUGAGUAAGUAUAAUCC` | CCDC109B | -1.039 |
| 69 | `UAACCAACUAUAGUACCAG` | PLSCR5 | -0.3455 |
| 70 | `UGGACUUUCAUGCCCAUCC` | COPG2 | 0.181 |
| 71 | `UGUCAAAAUAGCUAGUAUC` | MAST2 | -0.1033 |
| 72 | `UGUCAGAGAACACUCAUCC` | TLX1NB | -0.2735 |
| 73 | `UCGAUGUGAACUGAUACCG` | ARHGAP11A | -0.08924 |
| 74 | `AACUGGGUACUUCUUAUCC` | GXYLT2 | 1.221 |
| 75 | `UUAGUAAAAUGUCAUGCAA` | IDNK | 0.002633 |

The last 9 entries again:

With UUGCGGUUUCUAAUCCUUC against RNF144A the assay gave seed-corrected z-score -1.59.
With AGCUGAGUAAGUAUAAUCC against CCDC109B the assay gave seed-corrected z-score -1.039.
With UAACCAACUAUAGUACCAG against PLSCR5 the assay gave seed-corrected z-score -0.3455.
With UGGACUUUCAUGCCCAUCC against COPG2 the assay gave seed-corrected z-score 0.181.
With UGUCAAAAUAGCUAGUAUC against MAST2 the assay gave seed-corrected z-score -0.1033.
With UGUCAGAGAACACUCAUCC against TLX1NB the assay gave seed-corrected z-score -0.2735.
With UCGAUGUGAACUGAUACCG against ARHGAP11A the assay gave seed-corrected z-score -0.08924.
With AACUGGGUACUUCUUAUCC against GXYLT2 the assay gave seed-corrected z-score 1.221.
With UUAGUAAAAUGUCAUGCAA against IDNK the assay gave seed-corrected z-score 0.002633.

The results are deposited in PubChem (AID1159506; NCATS, 2015).